{
  "source": "PubChem BioAssay AID1347075",
  "about": "(National Center for Advancing Translational Sciences (NCATS), 2019)",
  "note": "“And” between values parts separate entries of the source, which are not always exact repeats. Equal entries are not always repeated. Hit rate of the full screen: of about 400,000 compounds, about 5,500 (1.4%) were called active. Inconclusive means that the source gave no clear call. Such entries were picked first, then a sample of the others. The call rests on the fitted dose curve; in most records, active means well fitted cell-killing curve with a large enough effect; inconclusive means small, poorly fitted or top-dose-only effect, or effect the other way; inactive means flat fitted curve, though single readings scatter. Potencies of inconclusive entries are doubtful fits and often do not repeat. On the % scale 0 is the no-effect control and ±100 the full control effect; potency means the concentration at half of the fitted maximal effect.",
  "data": [
    {"assay": "qHTS assay for MDR1-selective chemotherapeutics: Primary screen using the parental adenocarcinoma cell KB-3-1; further: nearly all actives have a fitted effect of over 60% in size", "settings": "KB-3-1 viability, CellTiter-Glo ATP luminescence, 72 h; activity change, negative = cytotoxic: at 46.1 µM (top of the series)", "summary_of_the_method": "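KB-3-1 parental drug-naive adenocarcinoma cells in DMEM/10% FBS, incubated 72 h at 37 C with pin-transferred compounds across a concentration series. Viability by CellTiter-Glo luminescence; concentration-response curves fitted after normalization.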", "values": [
      {"smiles": "N#Cc1ccc(N/N=C/c2cn(-c3ccccc3)nc2-c2ccccc2)c([N+](=O)[O-])c1", "Potency": "inconclusive: 29.1 µM [cytotoxic, single point]"},
      {"smiles": "CCCCCc1cc(=O)oc2c(C(CCN3CCCC3)c3ccc(N(C)C)cc3)c(OC)cc(OC)c12", "note": "(stereo not drawn)", "Potency": "inconclusive: 29.1 µM [cytotoxic, single point]"},
      {"smiles": "Cc1cccc(OC(=O)c2snnc2C)c1C", "activity change, negative = cytotoxic": "inactive: -0.0988%"},
      {"smiles": "CC(C)=N/N=C1/NC(=O)C(c2ccccc2)S1", "note": "(stereo not drawn)", "activity change, negative = cytotoxic": "inactive: 1.61%"},
      {"smiles": "Cc1nc([N+](=O)[O-])c(Br)n1CC(=O)c1ccc(Br)cc1", "Potency": "inconclusive: 29.1 µM [cytotoxic, single point]"},
      {"smiles": "COc1ccc(-c2coc3c(C(=O)NCCN(C)C)cccc23)c(C)c1", "Potency": "inconclusive: 29.1 µM [cytotoxic, single point]"},
      {"smiles": "COc1cc(C(=O)NCCCNc2nc3cc(C)cc(C)c3cc2C#N)cc(OC)c1OC", "activity change, negative = cytotoxic": "inconclusive: 62.6%"},
      {"smiles": "CCOC(=O)c1ccc(NC(=O)Nc2cc3c(cc2N2CCCCC2)n(CC)c(=O)n3CC)cc1", "Potency": "inconclusive: 20.6 µM [cytotoxic, single point]"},
      {"smiles": "CS(=O)CC(O)(c1ccc(F)cc1)C1CC1", "note": "(stereo not drawn)", "activity change, negative = cytotoxic": "inactive: -0.183%"},
      {"smiles": "CSCC(C)N1CCC(n2nccc2NC(=O)CCCc2ccccc2)CC1", "note": "(stereo not drawn)", "activity change, negative = cytotoxic": "inactive: -1.1%"},
      {"smiles": "O=C(CN1C(=O)NC(c2ccc(F)cc2)C1=O)NC1CCCCC1", "note": "(stereo not drawn)", "activity change, negative = cytotoxic": "inactive: 3.79%"},
      {"smiles": "O=C1CS/C(=N/N=C/c2cccs2)N1Cc1ccc(F)cc1", "Potency": "inconclusive: 14.6 µM [cytotoxic, partial curve, poor fit]"},
      {"smiles": "CC(=O)c1sc(NC(=O)C2CCN(C(=O)c3ccccc3C)CC2)nc1-c1ccccc1", "Potency": "inconclusive: 20.6 µM [cytotoxic, partial curve, poor fit]"},
      {"smiles": "O=C(/C=C/c1c(F)cccc1Cl)N1CCOCC1", "activity change, negative = cytotoxic": "inactive: 20.6%"},
      {"smiles": "O=Nc1c(O)c2ccccc2c2ccccc12", "Potency": "active: 4.61 µM"},
      {"smiles": "S=c1[nH]ccn1-c1cccc(Cl)c1Cl", "activity change, negative = cytotoxic": "inactive: 0.0565%"},
      {"smiles": "CCN(CC)S(=O)(=O)c1ccc(C(=O)NCCSc2c(-c3ccc(F)cc3)[nH]c3ccccc23)cc1", "Potency": "inconclusive: 13 µM [cytotoxic, partial curve, poor fit]"},
      {"smiles": "COc1cc(C(=O)N2CCN(c3ccc(C)cc3C)CC2)cc(OC)c1OC", "Potency": "active: 2.31 µM"},
      {"smiles": "COc1ccc(NC(=S)N2CCN(S(=O)(=O)c3ccccc3)CC2)cc1", "activity change, negative = cytotoxic": "inactive: -0.858%"},
      {"smiles": "CCOC(=O)c1c(C)[nH]c(C(=O)CN2C(=O)NC(CC)(c3ccccc3)C2=O)c1C", "note": "(stereo not drawn)", "Potency": "inconclusive: 0.184 µM [cytotoxic, full curve, poor fit]"},
      {"smiles": "O=C(/C=C/c1ccco1)NC(=S)Nc1ccc(N2CCCC2)cc1", "Potency": "inconclusive: 29.1 µM [cytotoxic, single point]"},
      {"smiles": "COc1cccc2c(SCC(=O)N/N=C/c3ccc(O)cc3O)cc(C)nc12", "Potency": "inconclusive: 29.1 µM [cytotoxic, single point]"},
      {"smiles": "CCOC(=O)[C@]12CCCC=C1N(Cc1ccc(Cl)cc1Cl)C(=O)[C@H](CC(=O)NCc1cccc3ccccc13)C2", "Potency": "inconclusive: 20.6 µM [cytotoxic, single point]"},
      {"smiles": "CC(=O)C1CCC2C3CCC4=CC(=O)C=CC4(C)C3CCC12C", "note": "(stereo not drawn)", "Potency": "inconclusive: 23.1 µM [cytotoxic, single point]"},
      {"smiles": "CCN(CC)S(=O)(=O)c1ccc(N/N=C(\\C)c2ccncc2)nc1", "activity change, negative = cytotoxic": "inactive: 9.29%"},
      {"smiles": "COc1ccc(-c2sc3ccc(OC)cc3c2C#Cc2ccccn2)cc1", "Potency": "inconclusive: 20.6 µM [cytotoxic, single point]"},
      {"smiles": "CCOC(=O)c1ccccc1OCc1cc(/C=N/NC(=O)c2cccnc2)ccc1OC", "Potency": "inconclusive: 29.1 µM [cytotoxic, single point]"},
      {"smiles": "CC(C)(C)OC(=O)NCCc1nnc(SCc2cccc(Cl)c2)o1", "activity change, negative = cytotoxic": "inactive: 2.85%"},
      {"smiles": "COc1cc(CN2CCc3ccccc3C2)ccc1O", "Potency": "active: 2.91 µM"},
      {"smiles": "Cc1ccccc1-n1c(C)cc(/C=C2/C(=N)N3C(c4ccccc4)=CSC3=NC2=O)c1C", "activity change, negative = cytotoxic": "inconclusive: -1.88%"},
      {"smiles": "COc1ccccc1N1CCN(C(=O)c2sc3nc(-c4ccc(F)cc4)cn3c2C)CC1", "Potency": "inconclusive: 25.9 µM [cytotoxic, partial curve, poor fit]"},
      {"smiles": "O=C(CCCN1C(=O)/C(=C/c2ccccc2Cl)SC1=S)N1CCCC1", "activity change, negative = cytotoxic": "inactive: 0%"},
      {"smiles": "COc1cc(C(=O)NC(=S)N(CCc2ccccc2)CCc2ccccc2)cc(OC)c1OC", "Potency": "inconclusive: 20.6 µM [cytotoxic, single point]"},
      {"smiles": "Cc1cc(Br)ccc1NC(=O)CN(C)C(=O)C1CCN(c2ncnc3sc(C)c(C)c23)CC1", "activity change, negative = cytotoxic": "inactive: -27.5%"},
      {"smiles": "O=C1NC(Cc2ccccc2)c2nc3ccc(Cl)cc3c(=O)n2-c2cc3ccccc3cc21", "note": "(stereo not drawn)", "Potency": "inconclusive: 3.66 µM [cytotoxic, full curve, poor fit]"},
      {"smiles": "O=C(Oc1ccc2ccccc2c1Cl)N1CCCC1", "Potency": "inconclusive: 20.6 µM [cytotoxic, partial curve, poor fit]"},
      {"smiles": "Cc1ccc(C(=O)N/C(=C\\c2ccc(-c3cc(Cl)ccc3Cl)o2)C(=O)NCc2cccnc2)cc1", "Potency": "inconclusive: 29.1 µM [cytotoxic, single point]"},
      {"smiles": "Cc1nc(C(F)(F)F)c(C(=O)N/N=C(\\N)c2ccccn2)s1", "Potency": "inconclusive: 29.1 µM [cytotoxic, single point]"},
      {"smiles": "COc1ccc(CCNC(=O)CN2C(=O)COc3ccc(S(=O)(=O)N4CCOCC4)cc32)cc1OC", "activity change, negative = cytotoxic": "inconclusive: -2.01%"},
      {"smiles": "Cc1ccc2c(c1)nnn2C1CCN(S(=O)(=O)c2ccc(C(=O)N(C)C)cc2)CC1", "Potency": "inconclusive: 20.6 µM [cytotoxic, single point]"},
      {"smiles": "COc1ccc(OC)c(NS(=O)(=O)c2ccc(-n3cccn3)cc2)c1", "Potency": "inconclusive: 25.9 µM [cytotoxic, partial curve, poor fit] and inconclusive: 29.1 µM [cytotoxic, single point]"},
      {"smiles": "O=C(Cn1ncc(Cl)c(Cl)c1=O)N1CCc2ccccc21", "Potency": "inconclusive: 29.1 µM [cytotoxic, single point]"},
      {"smiles": "COc1ccc(C)cc1S(=O)(=O)N1CCN(C/C=C/c2ccccc2)CC1", "activity change, negative = cytotoxic": "inactive: -4.39%"},
      {"smiles": "COc1ccc(NC(=O)c2nnn(Cc3nc(-c4cc(OC)c(OC)c(OC)c4)oc3C)c2C)cc1Cl", "activity change, negative = cytotoxic": "inactive: 9.64%"},
      {"smiles": "COc1ccc(-c2sc3cc4c(cc3c2-c2ccc(OCCN3CCOCC3)cc2)OCO4)cc1", "Potency": "inconclusive: 0.0291 µM [rising, full curve]"},
      {"smiles": "COc1ccc(OC)c(-c2cc(C3CCN(c4ncccc4[N+](=O)[O-])CC3)[nH]n2)c1", "Potency": "inconclusive: 29.1 µM [cytotoxic, single point]"},
      {"smiles": "CCN1/C(=C/c2ccc3cc(C)ccc3[n+]2CC)Sc2ccc3sccc3c21", "Potency": "active: 2.59 µM"},
      {"smiles": "CCCCNC(=O)C(CC)Sc1nc2ccccc2c(=O)n1Cc1ccco1", "note": "(stereo not drawn)", "activity change, negative = cytotoxic": "inactive: 1.34%"},
      {"smiles": "Cn1c(=O)c2c(nc(Br)n2Cc2ccc3ccccc3c2)n(C)c1=O", "Potency": "active: 7.31 µM"},
      {"smiles": "COc1ccc(NC(=O)C23CC4CC(C2)CC(c2ccccc2)(C4)C3)c(OC)c1", "activity change, negative = cytotoxic": "inactive: 0.121%"},
      {"smiles": "FC(F)(F)c1cccc(NC(=S)Nc2cccc(NC(=S)Nc3cccc(C(F)(F)F)c3)n2)c1", "Potency": "inconclusive: 20.6 µM [cytotoxic, single point]"},
      {"smiles": "CN(C)c1ccc(/C=C/c2cc(Cl)nc3ccccc23)cc1", "Potency": "inconclusive: 16.4 µM [cytotoxic, single point]"},
      {"smiles": "Cc1cc(C)n2nc(CNC(=O)c3c(F)cccc3F)nc2n1", "activity change, negative = cytotoxic": "inactive: 7.23%"},
      {"smiles": "Cc1ccc(-c2nnc(NC(=O)Cc3ccc(F)cc3)o2)c(C)c1", "Potency": "inconclusive: 20.6 µM [cytotoxic, single point]"},
      {"smiles": "O=C(NCCN1CCN(c2cccc(Cl)c2)CC1)c1ccc(CSc2nc3ccncc3[nH]2)cc1", "Potency": "inconclusive: 29.1 µM [cytotoxic, single point]"},
      {"smiles": "COc1ccc(-c2cc(C)no2)cc1S(=O)(=O)Nc1ccccc1", "Potency": "inconclusive: 29.1 µM [cytotoxic, partial curve, poor fit]"},
      {"smiles": "CCCC1=Nc2cc(C(=O)NCc3ccco3)ccc2Sc2ccccc21", "Potency": "active: 5.8 µM"},
      {"smiles": "CSc1ncc(Cl)c(C(=O)Nc2ccc(S(=O)(=O)Nc3nccc(C)n3)cc2)n1", "Potency": "inconclusive: 20.6 µM [cytotoxic, single point]"},
      {"smiles": "Cc1csc(NC(=O)c2c(O)c3c(n(CC(C)C)c2=O)CCCC3)n1", "Potency": "inconclusive: 32.6 µM [cytotoxic, single point]"},
      {"smiles": "O=C(CSc1nnc(NC(=O)c2ccco2)s1)Nc1ccc(F)cc1F", "Potency": "inconclusive: 1.64 µM [cytotoxic, partial curve, poor fit]"},
      {"smiles": "O=[N+]([O-])c1ccc(NNC(=S)Nc2ccccc2)cc1", "Potency": "inconclusive: 35.5 µM [cytotoxic, single point]"},
      {"smiles": "COc1ccc(-c2ccc3c(c2)S(=O)(=O)c2cccc(C(=O)O)c2C3=O)cc1OC", "activity change, negative = cytotoxic": "inactive: 7.05%"},
      {"smiles": "CS(=O)(=O)c1ccc(C(=O)OCC(=O)N2CC(=O)Nc3ccccc32)cc1[N+](=O)[O-]", "Potency": "inconclusive: 18.4 µM [cytotoxic, single point]"},
      {"smiles": "O=S1(=O)CC(N2CCN(Cc3ccccc3F)CC2)CN1Cc1cn(Cc2ccc(Cl)cc2)nn1", "note": "(stereo not drawn)", "Potency": "inconclusive: 14.6 µM [cytotoxic, single point]"},
      {"smiles": "Cc1cc(OCC(=O)NC2CCN(Cc3ccccc3)CC2)c2c(C)cc(=O)oc2c1", "Potency": "inconclusive: 20.6 µM [cytotoxic, single point]"},
      {"smiles": "Cc1nn(CC(=O)N2CCN(c3ccccc3)CC2)c(=O)c2ccccc12", "Potency": "inconclusive: 29.1 µM [cytotoxic, single point]"},
      {"smiles": "c1ccc(-c2nnc(-c3ccccn3)nn2)nc1", "activity change, negative = cytotoxic": "inactive: -2.55%"},
      {"smiles": "Cc1ccc(S(=O)(=O)N2CCN(C(=O)CCOc3ccccc3C)CC2)cc1C", "activity change, negative = cytotoxic": "inactive: -12%"}
    ]}
  ]
}
